Some of the results follow.
How the values were obtained:
Assay in all cases: log2 fold change, soluble protein after heating vs DMSO (PISA); higher = thermal stabilisation; K562 cells, 10 uM, 30 min; active = over 0.2 and 3.5 SD of the protein, either way, in both replicates (recomputed)
[1] = compound: NC(=O)Nc1cc(-c2cccc(F)c2)sc1C(=O)N[C@H]1CCCNC1
How it was run: (§1)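 Soluble protein was defined as the supernatant after 21,000xg for 90 min. It came from K562 cells at 2×10^6 cells/mL given 10 μM compound for 30 min, heated in aliquots for 3 min across 48°C-58°C, pooled, and extracted in PBS with 0.5% NP-40 at 4°C, and was quantified by TMTpro 16plex LC-MS/MS with equalised channel sums. Thermal stability against control samples, from duplicates, is reported as log2 fold change.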

By UniProt entry, the sequences of proteins in these tests, tags left out. Where a name states a change or a piece, a line headed by the entry shows the natural chain unless it says otherwise.
UniProt Q9BVC6: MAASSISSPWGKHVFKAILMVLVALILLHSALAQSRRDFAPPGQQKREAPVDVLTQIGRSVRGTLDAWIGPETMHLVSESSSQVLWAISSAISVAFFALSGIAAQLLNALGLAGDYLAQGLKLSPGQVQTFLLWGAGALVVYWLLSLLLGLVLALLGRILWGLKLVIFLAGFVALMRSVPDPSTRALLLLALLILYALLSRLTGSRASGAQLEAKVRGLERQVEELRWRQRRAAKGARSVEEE
UniProt Q6NUQ4: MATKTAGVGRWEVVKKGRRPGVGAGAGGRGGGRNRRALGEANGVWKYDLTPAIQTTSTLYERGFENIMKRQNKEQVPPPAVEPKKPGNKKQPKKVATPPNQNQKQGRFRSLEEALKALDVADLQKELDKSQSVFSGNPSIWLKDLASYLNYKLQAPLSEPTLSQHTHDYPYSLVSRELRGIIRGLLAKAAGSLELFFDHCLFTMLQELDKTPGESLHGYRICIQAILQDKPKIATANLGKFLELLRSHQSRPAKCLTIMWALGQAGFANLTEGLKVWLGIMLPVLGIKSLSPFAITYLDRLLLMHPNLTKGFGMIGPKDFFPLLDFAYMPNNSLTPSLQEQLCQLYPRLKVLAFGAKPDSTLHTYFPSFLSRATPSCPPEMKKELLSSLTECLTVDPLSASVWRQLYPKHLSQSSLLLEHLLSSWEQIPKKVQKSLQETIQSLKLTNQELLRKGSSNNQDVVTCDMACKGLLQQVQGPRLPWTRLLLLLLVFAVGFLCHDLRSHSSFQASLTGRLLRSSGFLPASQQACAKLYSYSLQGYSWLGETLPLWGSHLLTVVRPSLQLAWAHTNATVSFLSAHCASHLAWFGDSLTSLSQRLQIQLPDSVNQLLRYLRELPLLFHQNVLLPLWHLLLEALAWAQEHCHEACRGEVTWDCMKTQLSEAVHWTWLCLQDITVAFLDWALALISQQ
UniProt Q6UW68: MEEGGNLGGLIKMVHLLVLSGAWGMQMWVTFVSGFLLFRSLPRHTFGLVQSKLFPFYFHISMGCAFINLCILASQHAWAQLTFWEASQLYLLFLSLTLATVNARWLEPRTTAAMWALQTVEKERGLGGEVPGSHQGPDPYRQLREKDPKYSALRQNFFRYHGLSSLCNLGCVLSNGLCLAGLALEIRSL
UniProt O94886: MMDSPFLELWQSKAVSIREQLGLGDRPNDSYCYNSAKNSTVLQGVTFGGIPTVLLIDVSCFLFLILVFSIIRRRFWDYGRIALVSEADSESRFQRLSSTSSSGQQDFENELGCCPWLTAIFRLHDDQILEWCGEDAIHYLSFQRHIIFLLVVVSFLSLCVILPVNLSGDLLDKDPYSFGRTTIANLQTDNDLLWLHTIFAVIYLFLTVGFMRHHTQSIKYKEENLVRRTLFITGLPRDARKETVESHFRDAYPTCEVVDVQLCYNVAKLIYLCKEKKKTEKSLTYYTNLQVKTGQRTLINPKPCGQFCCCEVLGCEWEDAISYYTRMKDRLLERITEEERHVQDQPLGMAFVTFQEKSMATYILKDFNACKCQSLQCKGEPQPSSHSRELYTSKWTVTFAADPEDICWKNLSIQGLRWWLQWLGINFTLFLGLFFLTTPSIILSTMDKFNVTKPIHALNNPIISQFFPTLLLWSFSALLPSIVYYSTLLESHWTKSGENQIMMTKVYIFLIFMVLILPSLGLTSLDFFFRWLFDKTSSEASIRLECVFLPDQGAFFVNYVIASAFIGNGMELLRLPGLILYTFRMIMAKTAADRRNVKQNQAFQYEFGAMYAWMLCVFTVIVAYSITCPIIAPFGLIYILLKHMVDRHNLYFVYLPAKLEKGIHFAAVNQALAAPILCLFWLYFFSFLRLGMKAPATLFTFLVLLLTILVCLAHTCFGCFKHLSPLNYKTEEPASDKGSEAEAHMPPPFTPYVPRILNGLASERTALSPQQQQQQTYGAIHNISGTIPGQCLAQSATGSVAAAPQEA
UniProt Q9NR96: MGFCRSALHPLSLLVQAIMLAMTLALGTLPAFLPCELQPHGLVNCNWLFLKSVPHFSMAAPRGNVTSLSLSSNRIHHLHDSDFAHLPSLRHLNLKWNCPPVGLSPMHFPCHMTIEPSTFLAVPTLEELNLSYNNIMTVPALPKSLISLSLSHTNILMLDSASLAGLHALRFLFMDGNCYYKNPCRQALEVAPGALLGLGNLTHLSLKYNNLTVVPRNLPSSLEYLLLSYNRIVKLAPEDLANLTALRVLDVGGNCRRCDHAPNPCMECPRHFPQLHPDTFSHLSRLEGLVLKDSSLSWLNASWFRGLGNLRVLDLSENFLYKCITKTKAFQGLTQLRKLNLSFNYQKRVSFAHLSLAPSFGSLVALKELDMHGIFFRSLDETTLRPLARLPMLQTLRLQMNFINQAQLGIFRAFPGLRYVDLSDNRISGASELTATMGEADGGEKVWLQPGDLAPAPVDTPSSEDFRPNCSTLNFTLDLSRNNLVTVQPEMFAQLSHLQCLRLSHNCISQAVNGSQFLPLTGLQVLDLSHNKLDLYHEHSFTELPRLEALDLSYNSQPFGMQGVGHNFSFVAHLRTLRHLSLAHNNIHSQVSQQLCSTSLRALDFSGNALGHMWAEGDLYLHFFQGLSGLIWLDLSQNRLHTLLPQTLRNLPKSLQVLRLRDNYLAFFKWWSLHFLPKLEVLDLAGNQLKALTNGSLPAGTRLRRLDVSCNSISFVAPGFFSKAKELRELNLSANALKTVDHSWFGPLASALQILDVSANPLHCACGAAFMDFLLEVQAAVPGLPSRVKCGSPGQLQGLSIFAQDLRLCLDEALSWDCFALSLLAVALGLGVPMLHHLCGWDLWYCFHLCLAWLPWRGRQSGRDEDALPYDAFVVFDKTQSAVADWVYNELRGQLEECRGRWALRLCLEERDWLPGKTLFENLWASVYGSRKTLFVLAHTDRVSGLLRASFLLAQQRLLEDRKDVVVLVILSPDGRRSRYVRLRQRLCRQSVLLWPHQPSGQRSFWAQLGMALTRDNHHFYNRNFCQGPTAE
UniProt Q9BVK8: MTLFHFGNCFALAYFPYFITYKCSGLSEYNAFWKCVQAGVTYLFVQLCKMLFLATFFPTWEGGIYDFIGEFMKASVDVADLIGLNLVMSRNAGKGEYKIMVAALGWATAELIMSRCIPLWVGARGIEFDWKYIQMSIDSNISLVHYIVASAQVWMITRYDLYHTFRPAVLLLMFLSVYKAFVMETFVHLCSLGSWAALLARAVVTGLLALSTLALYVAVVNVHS
UniProt Q92545: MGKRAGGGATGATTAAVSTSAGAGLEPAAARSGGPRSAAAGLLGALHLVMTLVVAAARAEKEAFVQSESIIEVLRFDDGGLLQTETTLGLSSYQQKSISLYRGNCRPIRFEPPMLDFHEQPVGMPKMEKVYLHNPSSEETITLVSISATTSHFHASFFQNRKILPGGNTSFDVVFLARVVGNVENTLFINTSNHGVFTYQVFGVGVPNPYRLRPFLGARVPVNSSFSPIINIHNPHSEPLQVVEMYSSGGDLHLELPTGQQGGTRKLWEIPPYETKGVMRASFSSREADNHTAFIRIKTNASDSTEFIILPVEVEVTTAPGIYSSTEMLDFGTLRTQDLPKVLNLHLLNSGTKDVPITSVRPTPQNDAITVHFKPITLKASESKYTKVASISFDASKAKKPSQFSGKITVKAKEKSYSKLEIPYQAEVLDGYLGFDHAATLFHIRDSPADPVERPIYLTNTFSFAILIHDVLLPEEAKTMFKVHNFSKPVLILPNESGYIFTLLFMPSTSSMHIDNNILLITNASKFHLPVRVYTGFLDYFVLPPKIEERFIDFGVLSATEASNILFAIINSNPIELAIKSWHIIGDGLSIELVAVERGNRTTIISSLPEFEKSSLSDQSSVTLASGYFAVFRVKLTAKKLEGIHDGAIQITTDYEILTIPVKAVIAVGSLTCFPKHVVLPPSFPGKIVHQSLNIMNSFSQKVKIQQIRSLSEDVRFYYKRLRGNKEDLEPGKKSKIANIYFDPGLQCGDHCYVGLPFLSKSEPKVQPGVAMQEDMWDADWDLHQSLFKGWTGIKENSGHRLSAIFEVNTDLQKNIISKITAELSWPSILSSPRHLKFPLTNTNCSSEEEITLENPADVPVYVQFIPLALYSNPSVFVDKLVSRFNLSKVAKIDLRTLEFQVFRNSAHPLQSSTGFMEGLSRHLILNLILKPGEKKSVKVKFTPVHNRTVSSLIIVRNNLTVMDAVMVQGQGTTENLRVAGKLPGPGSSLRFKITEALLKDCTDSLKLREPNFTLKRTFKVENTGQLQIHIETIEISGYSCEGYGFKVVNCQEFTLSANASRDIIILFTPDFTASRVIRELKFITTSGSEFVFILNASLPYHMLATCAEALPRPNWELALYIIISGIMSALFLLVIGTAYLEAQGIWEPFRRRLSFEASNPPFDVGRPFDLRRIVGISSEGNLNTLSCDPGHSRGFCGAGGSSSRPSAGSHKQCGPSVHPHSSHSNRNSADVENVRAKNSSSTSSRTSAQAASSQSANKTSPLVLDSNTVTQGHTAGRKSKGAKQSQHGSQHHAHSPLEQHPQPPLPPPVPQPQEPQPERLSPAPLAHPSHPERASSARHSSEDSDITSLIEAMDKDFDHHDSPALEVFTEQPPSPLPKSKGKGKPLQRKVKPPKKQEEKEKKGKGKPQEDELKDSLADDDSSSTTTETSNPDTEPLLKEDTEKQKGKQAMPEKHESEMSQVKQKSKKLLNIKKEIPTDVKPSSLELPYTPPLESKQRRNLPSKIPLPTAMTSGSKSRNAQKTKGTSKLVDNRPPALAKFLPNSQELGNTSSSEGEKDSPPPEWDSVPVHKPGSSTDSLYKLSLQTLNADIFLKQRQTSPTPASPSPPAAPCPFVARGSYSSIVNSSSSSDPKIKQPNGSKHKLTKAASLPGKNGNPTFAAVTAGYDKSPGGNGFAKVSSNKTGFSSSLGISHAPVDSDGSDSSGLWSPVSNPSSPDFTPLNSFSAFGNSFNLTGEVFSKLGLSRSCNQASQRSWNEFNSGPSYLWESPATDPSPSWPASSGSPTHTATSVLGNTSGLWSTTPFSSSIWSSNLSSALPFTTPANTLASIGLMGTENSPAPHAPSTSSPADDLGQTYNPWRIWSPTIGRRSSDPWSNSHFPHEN
UniProt Q9BVK6: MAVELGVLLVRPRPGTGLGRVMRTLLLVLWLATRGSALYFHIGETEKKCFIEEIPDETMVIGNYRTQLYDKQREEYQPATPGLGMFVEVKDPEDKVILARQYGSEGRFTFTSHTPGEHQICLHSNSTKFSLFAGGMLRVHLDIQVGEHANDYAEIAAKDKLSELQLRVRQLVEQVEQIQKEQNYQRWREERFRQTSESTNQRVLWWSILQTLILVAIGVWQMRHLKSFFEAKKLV
UniProt Q9P2C4: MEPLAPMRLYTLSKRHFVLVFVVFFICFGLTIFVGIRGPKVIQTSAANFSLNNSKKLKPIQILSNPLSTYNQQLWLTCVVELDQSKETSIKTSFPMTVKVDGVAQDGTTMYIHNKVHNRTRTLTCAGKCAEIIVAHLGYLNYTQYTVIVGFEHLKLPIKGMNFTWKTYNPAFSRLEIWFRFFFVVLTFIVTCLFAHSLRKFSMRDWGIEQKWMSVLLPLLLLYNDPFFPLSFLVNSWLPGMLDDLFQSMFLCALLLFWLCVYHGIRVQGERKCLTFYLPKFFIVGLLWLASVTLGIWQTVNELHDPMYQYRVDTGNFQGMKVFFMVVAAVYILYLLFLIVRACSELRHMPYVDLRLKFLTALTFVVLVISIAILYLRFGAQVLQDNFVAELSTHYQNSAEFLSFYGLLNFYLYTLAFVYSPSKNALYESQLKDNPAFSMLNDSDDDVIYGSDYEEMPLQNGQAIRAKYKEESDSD
UniProt O75204: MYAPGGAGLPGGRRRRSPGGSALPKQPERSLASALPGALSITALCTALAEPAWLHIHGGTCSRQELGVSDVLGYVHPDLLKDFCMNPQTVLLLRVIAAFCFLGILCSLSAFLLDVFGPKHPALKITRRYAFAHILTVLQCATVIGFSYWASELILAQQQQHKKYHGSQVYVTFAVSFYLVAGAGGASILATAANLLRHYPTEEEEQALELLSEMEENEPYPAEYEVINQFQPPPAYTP
UniProt O76062: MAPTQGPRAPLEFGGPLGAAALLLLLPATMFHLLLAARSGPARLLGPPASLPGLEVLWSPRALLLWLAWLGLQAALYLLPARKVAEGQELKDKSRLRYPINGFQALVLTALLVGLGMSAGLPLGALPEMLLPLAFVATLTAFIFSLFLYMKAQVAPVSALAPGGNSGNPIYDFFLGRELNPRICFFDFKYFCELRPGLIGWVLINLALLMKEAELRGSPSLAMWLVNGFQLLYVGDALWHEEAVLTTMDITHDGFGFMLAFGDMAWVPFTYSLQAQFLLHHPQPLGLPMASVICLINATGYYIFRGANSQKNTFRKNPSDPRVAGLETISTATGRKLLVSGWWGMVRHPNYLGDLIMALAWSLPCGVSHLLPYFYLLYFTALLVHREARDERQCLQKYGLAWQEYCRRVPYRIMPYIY
UniProt O95807: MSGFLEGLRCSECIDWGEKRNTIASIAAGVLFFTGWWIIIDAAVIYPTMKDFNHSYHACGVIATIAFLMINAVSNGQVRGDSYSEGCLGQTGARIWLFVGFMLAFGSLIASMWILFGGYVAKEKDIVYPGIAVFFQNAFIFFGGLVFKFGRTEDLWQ

[2] = compound: NC(=O)c1cnc(N[C@@H]2CCCC[C@@H]2N)nc1Nc1cccc(-n2nccn2)c1
How it was run: as §1

[3] = compound: NC1(c2ccc(-c3nc4ccn5c(=O)[nH]nc5c4cc3-c3ccccc3)cc2)CCC1
How it was run: as §1

[4] = compound: NCC(=O)Nc1ccc(-n2nc(C(F)(F)F)cc2-c2ccc3c(ccc4ccccc43)c2)cc1
How it was run: as §1

[5] = compound: Nc1ccccc1NC(=O)c1ccc(CNC(=O)OCc2cccnc2)cc1 [entinostat]
How it was run: as §1

[6] = compound: O=C(CCCCCCC(=O)Nc1ccccc1)NO [vorinostat]
How it was run: as §1

[7] = compound: O=C(CCCCCCNC(=O)c1cnc(N(c2ccccc2)c2ccccc2Cl)nc1)NO [citarinostat]
How it was run: as §1

[8] = compound: O=C(O)c1ccc2c(c1)nc(Nc1cccc(Cl)c1)c1ccncc12 [silmitasertib]
How it was run: as §1

[9] = compound: O=C1NC(=O)C(c2cnc3ccccn23)=C1c1cn2c3c(cc(F)cc13)CN(C(=O)N1CCCCC1)CC2
How it was run: as §1

[10] = compound: c1cc(OCCN2CCCCC2)cc(-c2n[nH]c3ccc(-c4nnc[nH]4)cc23)c1
How it was run: as §1

Measured: log2 fold change

TMOD1 (UniProt P28289)
inactive: [1] -0.024 | [2] -0.077 | [3] -0.102 | [4] -0.046 | [5] 0.052 | [6] 0.134 | [7] 0.111 | [8] 0.13 | [9] 0.047 | [10] -0.096

TNFAIP8 isoform 4 (UniProt O95379)
active: [6] 0.207
inactive: [1] -0.032 | [2] -0.091 | [3] -0.061 | [4] 0.029 | [5] 0.018 | [7] 0.012 | [8] 0.147 | [9] -0.073 | [10] 0.087

TMEM248 (UniProt Q9NWD8)
inactive: [1] -0.099 | [2] -0.054 | [3] 0.002 | [4] -0.051 | [5] -0.043 | [6] -0.059 | [7] 0.051 | [8] -0.038 | [9] 0.076 | [10] -0.112

TMEM128 (UniProt Q5BJH2)
inactive: [1] -0.059 | [2] -0.167 | [4] -0.092 | [5] -0.036 | [7] -0.131 | [9] -0.037 | [10] -0.07

TMEM186 (UniProt Q96B77)
inactive: [1] -0.052 | [2] -0.044 | [3] -0.065 | [4] -0.067 | [5] -0.136 | [7] 0.117 | [8] 0.041 | [9] 0.099 | [10] -0.072

TM6SF1 (UniProt Q9BZW5)
inactive: [1] 0.054 | [2] 0.085 | [3] 0.061 | [4] -0.017 | [5] -0.063 | [6] 0.023 | [8] 0.142 | [9] -0.029

TM7SF3 (UniProt Q9NS93)
inactive: [1] 0.091 | [2] 0.048 | [5] 0.076 | [7] 0.179 | [8] 0.066 | [10] 0.084
active: [3] -0.359

TMEM268 isoform 3 (UniProt Q5VZI3)
inactive: [1] 0.12 | [2] 0.057 | [3] -0.141 | [5] 0.059 | [6] 0.162 | [7] 0.084 | [8] -0.114 | [9] 0.174 | [10] -0.117

TMEM109 (UniProt Q9BVC6)
inactive: [1] 0.006 | [2] -0.094 | [3] -0.001 | [4] -0.041 | [5] 0.016 | [6] -0.069 | [7] -0.047 | [8] -0.002 | [9] -0.039 | [10] 0.037

TLN2 (UniProt Q9Y4G6)
inactive: [1] 0.055 | [2] 0.011 | [3] 0.032 | [4] 0.055 | [5] 0.01 | [6] 0.033 | [7] -0.02 | [8] 0.045 | [9] -0.018 | [10] -0.094

TMEM214 (UniProt Q6NUQ4)
inactive: [1] -0.01 | [2] 0.049 | [3] -0.003 | [4] 0.022 | [5] 0.003 | [6] 0.047 | [7] -0.01 | [8] 0.006 | [9] 0.02 | [10] -0.022

TMED4 (UniProt Q7Z7H5)
inactive: [1] -0.015 | [2] -0.039 | [3] 0 | [4] -0.054 | [5] 0.003 | [6] -0.027 | [7] -0.122 | [8] -0.009 | [9] -0.013 | [10] 0.061

TMEM63B (UniProt Q5T3F8)
inactive: [1] 0.069 | [2] 0.059 | [3] -0.153 | [4] 0.052 | [5] 0.07 | [6] -0.008 | [7] -0.024 | [8] 0.001 | [9] -0.037 | [10] -0.021

TM9SF2 (UniProt Q99805)
inactive: [1] 0.026 | [2] 0.006 | [3] -0.138 | [4] -0.022 | [5] -0.006 | [6] 0.006 | [7] -0.003 | [8] 0.002 | [9] -0.057 | [10] -0.062

TMEM62 (UniProt Q0P6H9)
inactive: [1] -0.033 | [2] -0.163 | [3] -0.104 | [4] -0.062 | [5] -0.142 | [6] 0.008 | [7] 0.042 | [8] -0.029 | [9] -0.009 | [10] -0.053

TMEM179B (UniProt Q7Z7N9)
inactive: [1] -0.235 | [2] 0.079 | [3] -0.255 | [5] 0.04 | [6] -0.156 | [7] -0.019 | [8] -0.043 | [9] -0.173 | [10] -0.112

TMEM205 (UniProt Q6UW68)
inactive: [1] -0.028 | [3] 0.056 | [4] 0.133 | [5] -0.003 | [6] -0.124 | [7] 0.049 | [8] 0.042 | [9] 0 | [10] -0.057

TMEM63A (UniProt O94886)
inactive: [1] -0.048 | [2] 0.207 | [3] 0.002 | [4] 0.088 | [5] -0.099 | [6] -0.066 | [7] -0.027 | [8] -0.032 | [9] -0.042 | [10] -0.022

TLR9 isoform 4 (UniProt Q9NR96)
inactive: [1] -0.068 | [2] -0.063 | [3] -0.12 | [4] -0.088 | [5] 0.018 | [7] -0.073 | [8] 0.075 | [9] -0.121 | [10] 0

TMEM147 (UniProt Q9BVK8)
inactive: [1] -0.035 | [2] -0.089 | [3] -0.12 | [4] -0.179 | [5] 0.026 | [8] 0.174 | [9] 0.045

TMEM14C (UniProt Q9P0S9)
inactive: [1] 0.105 | [2] -0.08 | [3] 0.011 | [4] 0.047 | [5] -0.04 | [6] 0.086 | [7] 0.107 | [8] 0.052 | [10] -0.086

TMEM143 (UniProt Q96AN5)
inactive: [1] -0.022 | [2] -0.07 | [3] 0.286 | [5] 0.03 | [7] 0.007 | [8] -0.055 | [10] -0.054

TMEM167B (UniProt Q9NRX6)
inactive: [1] -0.011 | [3] 0.023 | [4] -0.018 | [5] -0.005 | [6] -0.079 | [7] 0.003 | [8] 0.085 | [10] -0.126

TMEM131 (UniProt Q92545)
inactive: [1] 0.09 | [2] -0.014 | [5] 0.023 | [6] -0.073

TMED9 (UniProt Q9BVK6)
inactive: [1] -0.014 | [2] 0.023 | [3] -0.036 | [4] -0.011 | [5] -0.029 | [6] -0.058 | [7] 0.016 | [8] -0.029 | [9] 0.023 | [10] -0.076

TMBIM6 isoform 2 (UniProt P55061)
inactive: [1] 0.027 | [2] -0.119 | [3] 0.189 | [4] -0.015 | [5] 0.044 | [7] 0.05 | [8] -0.206 | [9] -0.089 | [10] -0.067

TMEM41B (UniProt Q5BJD5)
inactive: [2] -0.158 | [3] -0.067 | [4] -0.111 | [6] 0.01 | [7] -0.018 | [8] 0.049 | [9] 0.079 | [10] -0.031

TMEM181 (UniProt Q9P2C4)
inactive: [2] 0.194 | [3] -0.059 | [4] -0.06 | [6] 0 | [7] 0.053 | [8] 0.029 | [10] 0.076

TMEM59 (UniProt Q9BXS4)
inactive: [2] 0.032 | [3] 0.118 | [6] -0.075 | [8] -0.103

TMEM159 isoform 2 (UniProt Q96B96)
inactive: [1] 0.02 | [3] 0.07 | [5] -0.098 | [6] -0.127 | [8] -0.046 | [9] 0.007

TMEM127 (UniProt O75204)
inactive: [2] -0.126

TM7SF2 (UniProt O76062)
inactive: [1] 0.057 | [4] -0.276 | [5] 0.119

TMEM50A (UniProt O95807)
inactive: [2] 0.033 | [4] 0.108 | [9] -0.06

2 records picked at random from the list so far, as already listed:
TMEM159 isoform 2 (UniProt Q96B96)
inactive: [1] 0.02 | [3] 0.07 | [5] -0.098 | [6] -0.127 | [8] -0.046 | [9] 0.007

TMEM59 (UniProt Q9BXS4)
inactive: [2] 0.032 | [3] 0.118 | [6] -0.075 | [8] -0.103

The listing continues.

TMPO (UniProt G5E972)
inactive: [3] -0.289 | [6] 0.082 | [8] 0.072

Source: the supplement of paper PMC10849652
